The target in this assay is T1, Aromatase (Homo sapiens, UniProt P11511).
T1 sequence (P11511 whole entry): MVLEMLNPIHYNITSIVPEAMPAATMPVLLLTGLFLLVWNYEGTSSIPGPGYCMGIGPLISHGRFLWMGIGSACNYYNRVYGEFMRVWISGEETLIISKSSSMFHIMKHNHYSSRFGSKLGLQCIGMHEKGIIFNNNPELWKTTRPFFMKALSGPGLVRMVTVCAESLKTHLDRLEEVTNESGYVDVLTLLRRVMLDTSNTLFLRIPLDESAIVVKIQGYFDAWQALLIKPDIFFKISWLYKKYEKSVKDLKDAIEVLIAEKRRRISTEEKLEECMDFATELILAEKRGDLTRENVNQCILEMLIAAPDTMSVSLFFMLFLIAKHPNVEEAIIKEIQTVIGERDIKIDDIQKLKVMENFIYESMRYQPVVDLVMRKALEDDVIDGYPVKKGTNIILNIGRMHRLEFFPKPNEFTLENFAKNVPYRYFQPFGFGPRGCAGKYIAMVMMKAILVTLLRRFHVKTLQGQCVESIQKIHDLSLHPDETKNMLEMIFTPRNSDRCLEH
Briefly: Inhibition of aromatase in human placental microsomes assessed as inhibition of aromatization of [1,2,6,7-3H] androstenedione by flow scintillation analysis. The arrangement: species or system Placenta.

“And” between values parts separate entries of the source, which are not always exact repeats. Identical values can stand only once.

As a reminder, the IC50 is the concentration needed to halve the response being measured.

Regarding `COc1ccc2c(c1)OC(c1ccccc1)CC2n1ccnc1` (stereo unspecified), the concentration for half-maximal inhibition (IC50) is 60 nM and 600 nM.

(Values after ChEMBL document CHEMBL1781966, “Lead optimization of 4-imidazolylflavans: new promising aromatase inhibitors” (Eur J Med Chem, 2011).)
